Experimental data: paper PMC11780858
No constants are given. Whether binding was seen depends on the method and setting. In cells and extracts the contact can be indirect.

Chains of the proteins cited; added tags and fusions are not shown.
UniProt P67775: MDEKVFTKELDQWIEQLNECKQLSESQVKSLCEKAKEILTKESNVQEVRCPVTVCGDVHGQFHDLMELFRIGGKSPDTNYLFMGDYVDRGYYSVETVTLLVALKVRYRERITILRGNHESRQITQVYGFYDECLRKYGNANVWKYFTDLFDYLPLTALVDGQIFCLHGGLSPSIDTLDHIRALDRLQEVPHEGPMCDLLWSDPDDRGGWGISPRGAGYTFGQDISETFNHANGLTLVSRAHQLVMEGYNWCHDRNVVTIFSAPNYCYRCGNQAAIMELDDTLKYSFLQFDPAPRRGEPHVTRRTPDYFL

Molecular target: PP2A catalytic Cα subunit, N-terminally SmBiT-tagged (human) (UniProt P67775)
Experiment: split reporter; live COS-1 cells in 96-well plates transfected with equal mass ratios of plasmids for SmBiT-Cα, Bβ2-LgBiT and Aα (without Lg/SmBiT); luminescence with Nano-Glo Live Cell Substrate after 24-36 h; normalised for Bβ2-LgBiT expression with a cell-permeable HiBiT peptide

In the case of “PPP2R2B/Bβ2 RR168EE (monomeric A/B interface mutant), C-terminally LgBiT-tagged (from UniProt Q00005-2)”, the binding is reported as “no binding”.
